The nature of the series: Injection of model compound into suprachoroidal space of pig eyes ex vivo with hollow microneedle.

Turning to `CCN(CC)c1ccc2c(-c3ccc(S(=O)(=O)O)cc3S(=O)(=O)[O-])c3ccc(=[N+](CC)CC)cc-3oc2c1` [sulforhodamine B, Sulforhodamine B], the “Location of injected solution after infusion” value (pig eye ex vivo, 35 μL, brightfield image) was “just below the sclera and above the choroid in the suprachoroidal space”. Also, the “Volumes able to be injected without leakage” value (pig eyes ex vivo, single hollow microneedle) is listed as “up to 35 μL”.

For the origin of these results see US10905586B2, “Methods and devices for drug delivery to ocular tissue using microneedle” (Emory University, priority 2006, dated 2021).
